This assay addresses connexin43 (Gja1) (mouse) (UniProt P23242). Briefly: co-IP; coprecipitation with the available antibodies to BT-IgSF and connexin43; sample, buffer and conditions not described.

By UniProt entry, the sequences of proteins in these tests, tags left out.
UniProt P23242: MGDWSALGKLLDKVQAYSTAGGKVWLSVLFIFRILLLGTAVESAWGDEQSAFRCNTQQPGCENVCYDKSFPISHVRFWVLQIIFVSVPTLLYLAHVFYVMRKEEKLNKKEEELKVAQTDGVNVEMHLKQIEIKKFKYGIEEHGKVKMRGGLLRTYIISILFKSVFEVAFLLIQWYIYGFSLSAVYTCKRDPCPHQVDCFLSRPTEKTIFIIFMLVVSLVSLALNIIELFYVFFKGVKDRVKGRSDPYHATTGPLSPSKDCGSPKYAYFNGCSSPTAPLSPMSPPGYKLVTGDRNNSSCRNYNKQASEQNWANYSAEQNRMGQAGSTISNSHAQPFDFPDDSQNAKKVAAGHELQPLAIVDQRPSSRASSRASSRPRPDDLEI

No constants are given. Whether binding was seen depends on the method and setting. Binding seen in cells or lysates may run through a third protein.

B1: BT-IgSF (brain- and testis-specific Ig superfamily protein) (protein, UniProt P0C673 23-428)
chain: LEVSESPGSVQVARGQTAVLPCAFSTSAALLNLNVIWMVIPLSNANQPEQVILYQGGQMFDGALRFHGRVGFTGTMPATNVSIFINNTQLSDTGTYQCLVNNLPDRGGRNIGVTGLTVLVPPSAPQCQIQGSQDLGSDVILLCSSEEGIPRPTYLWEKLDNTLKLPPTATQDQVQGTVTIRNISALSSGLYQCVASNAIGTSTCLLDLQVISPQPRSVGVIAGAVGTGAVLIVICLALISGAFFYWRSKNKEEEEEEIPNEIREDDLPPKCSSAKAFHTEISSSENNTLTSSNTYNSRYWNNNPKPHRNTESFNHFSDLRQSFSGNAVIPSIYANGNHLVLGPHKTLVVTANRGSSPQVLPRNNGSVSRKPWPQHTHSYTVSQMTLERIGAVPVMVPAQSRAGSLV
As to B1, the binding entry is “no binding”.

(Values after PMC10957231.)
